The nature of this test: qHTS Assay for Modulators of Lamin A Splicing. Conditions: HeLa LMNA splicing GFP/RFP minigene ratio, 48 h. The essentials: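 S3 HeLa stable clones carrying a lamin A-EGFP splicing minigene plus DsRed2 were seeded at 600 cells/well in Opti-MEM with 2% FBS, pin-dosed and incubated 48 h at 37°C. Acumen cytometry (488 nm) gave the GFP/RFP total-intensity ratio.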
In general terms: qHTS replaces the single test concentration by a dilution series.

Where [1] appears, read: measured here: GFP splicing reporter channel.
Setting [2] is: measured here: RFP viability control channel.

Drawing on PubChem BioAssay AID1487 (National Center for Advancing Translational Sciences (NCATS), 2009), this text covers AC50 for 56 molecules.

SMILES strings stand for the structures. The list shows a part of the results. Further columns of the screen follow, without active or inactive calls. Compounds called inactive in the main read-out are mostly missing here. Potencies come from curve fits of mixed quality, noted in brackets.

For `COc1cc2c(cc1OC)C(c1cc(OC)c(OC)c(OC)c1)NCC2` (centres undefined), the half-maximal activity concentration (AC50) (usually the midpoint of the concentration-response curve, whichever way the signal moves) reads like this: under setting [1], 0.0224 µM [falling, full curve, poor fit]; under setting [2], 0.0501 µM [falling, full curve, poor fit].

With `c1nc(N2CCOCC2)c2cc(-c3ccoc3)ccc2n1`, the AC50 runs as follows: under setting [1], 17.8 µM [falling, partial curve, poor fit]; under setting [2], 4.47 µM [falling, partial curve, poor fit].

`CCN1CCc2c(sc(-n3cccc3)c2C(CCC(C)C)NC(=O)NCCC(=O)OC)C1` (centres undefined): the AC50 runs as follows: under setting [1], 35.5 µM [rising, single point]; under setting [2], 11.2 µM [rising, partial curve].

Take `COc1ccc(-n2cc(-c3ccccc3)c3c(N4CCOCC4)ncnc32)cc1`: the AC50 under setting [1] is 8.91 µM [falling, partial curve] and the AC50 under setting [2] is 25.1 µM [falling, single point].

With `Cc1ccc(/C=C/C(=O)OCC(=O)Nc2ccccc2Sc2ccccc2)cc1`, the AC50 under setting [2] was 0.00316 µM [falling, full curve, poor fit].

Take `CCn1c(CSc2nc3ccccc3s2)nnc1SCC(=O)c1ccc2c(c1)OCCO2`: the AC50 under setting [2] is 2.82 µM [falling, partial curve, poor fit].

Regarding `OC(CNCc1ccco1)Cn1c2ccccc2c2ccccc21` (centres undefined), the AC50 under setting [2] was 0.0112 µM [rising, full curve, poor fit].

Turning to `COc1cc2c(cc1OC)CN(C(=S)Nc1ccc(OC(F)F)cc1)CC2`, under setting [2], the AC50 is 35.5 µM [falling, single point].

Consider `CC1(C)NC(=O)N(CCCOc2ccc3c(c2)CCC3)C1=O`, for which the AC50 is, setting by setting: under setting [1], 15.8 µM [rising, single point]; under setting [2], 35.5 µM [rising, single point].

Turning to `COc1ccc(CNc2ncnc3ccc(-c4c(C)noc4C)cc23)c(OC)c1`, the AC50 under setting [1] is 2.82 µM [falling, full curve].

In the case of `CN(c1ccccc1)S(=O)(=O)c1cccc(NC(=O)Cc2c(F)cccc2Cl)c1`, the AC50 is, setting by setting: under setting [1], 8.91 µM [rising, partial curve, poor fit]; under setting [2], 15.8 µM [rising, partial curve].

As for `COC(=O)CN=Cc1c(C)[nH]n(-c2ccccc2)c1=O`, the concentration at half-maximal activity (AC50) under setting [2] is 0.112 µM [falling, partial curve, poor fit].

On to `COc1ccc(CNc2ncnc3ccc(-c4cccc(C#N)c4)cc23)c(OC)c1`, for which the AC50 under setting [1] is 7.94 µM [falling, partial curve].

Regarding `COc1ccc2c(c1)SCC/C2=C\CN1C(=O)CCC1=O`, under setting [1], the AC50 is 11.2 µM [rising, single point].

As for `COc1ccc(/C=C/c2c([N+](=O)[O-])c(=O)n(C)c(=O)n2C)cc1O`, the AC50 under setting [2] is 31.6 µM [rising, single point].

`CCC(C)NS(=O)(=O)c1ccc(OCC(=O)N2CCC(C)CC2)cc1` (centres undefined): under setting [2], the AC50 was 31.6 µM [rising, single point].

Consider `Cc1nn(C(=O)/C(C#N)=C/N(C)C)c(C)c1C`, for which the AC50 under setting [2] is 0.501 µM [rising, full curve, poor fit].

As for `CCOC(CCn1c(SCc2ccc([N+](=O)[O-])cc2)nc2ccccc2c1=O)OCC`, the AC50 is 31.6 µM [rising, single point] under setting [1] and 35.5 µM [rising, single point] under setting [2].

Turning to `N#Cc1cc(-c2ccccc2)nc(Oc2ccc(Cl)cc2)n1`, the AC50 was 3.98 µM [rising, full curve] under setting [1] and 11.2 µM [rising, partial curve] under setting [2].

For `Cc1ccc(NC(=O)CSc2nc(C3CCCC3)nc3c2c(=O)n(C)c(=O)n3C)c(C)c1`, the AC50 is 0.355 µM [rising, full curve] under setting [1] and 0.708 µM [rising, full curve, poor fit] under setting [2].

Regarding `Cc1cccc(NC(c2ccc(C)s2)c2ccc3ccc(C)nc3c2O)n1` (centres undefined), the AC50 under setting [2] was 31.6 µM [rising, single point].

Regarding `CCCNC(=O)c1ccc(C2SCC(=O)N2CCc2ccccc2)cc1` (centres undefined), the AC50 under setting [1] was 10 µM [rising, partial curve] and the AC50 under setting [2] was 14.1 µM [rising, partial curve].

With `Cc1cccc(N2CCN(C(=O)Cc3ccc(Br)cc3)CC2)c1C`, the AC50 by setting is: under setting [1], 6.31 µM [rising, partial curve, poor fit]; under setting [2], 20 µM [rising, single point].

As for `COC(=O)c1ccc2nc(NC(=O)C3CCCCC3)sc2c1`, the AC50 under setting [1] was 0.0316 µM [falling, full curve].

For the molecule `COc1ccc2c(c1)CC(NC(=O)Nc1ccc(Br)c(C)c1)CO2` (centres undefined), the AC50 under setting [2] is 0.501 µM [rising, full curve, poor fit].

With `O=C(NC(=S)Nc1ccc(N2CCCCC2)cc1)c1cccs1`, the AC50 under setting [2] was 14.1 µM [rising, single point].

As to `Cc1ccc(-c2cc(C(=O)Nc3ccc(S(=O)(=O)Nc4nc(C)cc(C)n4)cc3)c3ccccc3n2)cc1`, the half-maximal activity concentration (AC50) by setting is: under setting [1], 15.8 µM [rising, partial curve]; under setting [2], 22.4 µM [rising, single point].

Turning to `CC(C)(C)c1nnc(N/N=C/c2ccccc2O)n(N)c1=O`, the AC50 under setting [2] was 6.31 µM [rising, partial curve].

Turning to `Cc1ccc(-c2nc(Cn3c(SCc4ccc(F)cc4)nc4cccnc43)c(C)o2)cc1`, the AC50 under setting [1] was 22.4 µM [falling, partial curve, poor fit].

Regarding `O=C(Nc1nnc(-c2cccs2)o1)c1cccc(C(F)(F)F)c1`, the AC50 under setting [2] is 7.94 µM [rising, partial curve].

For `CCOC(=O)N1CCc2c(sc(NCc3cccc(F)c3)c2C(=O)Nc2ccc(OCC)cc2)C1`, the concentration at half-maximal activity (AC50) under setting [1] was 0.0126 µM [rising, full curve, poor fit].

Consider `COc1cccc(-c2csc(N3CCN(CC(=O)Nc4ccc5c(c4)OCO5)CC3)n2)c1`, for which, under setting [2], the AC50 was 15.8 µM [rising, single point].

With `COc1ccc(S(=O)(=O)N2CCC(O)(c3ccc4c(c3)OCO4)CC2)cc1`, the concentration at half-maximal activity (AC50) was 14.1 µM [rising, single point] under setting [1] and 10 µM [rising, partial curve] under setting [2].

In the case of `O=C(O)c1ccccc1COc1ccccc1Cl`, the AC50 under setting [1] was 35.5 µM [falling, single point].

Regarding `[S-]C(=Nc1ccc(Cl)cc1)N[n+]1ccccc1`, under setting [2], the AC50 is 0.0891 µM [falling, full curve, poor fit].

Consider `CCC(C(=O)OCn1nnc2ccccc2c1=O)c1ccccc1` (centres undefined), for which the AC50 under setting [2] was 1.41 µM [falling, partial curve].

As to `CCn1c(SCc2nc(-c3cccs3)no2)nnc1-c1c[nH]c2ccccc12`, the AC50 under setting [2] is 31.6 µM [rising, single point].

With `Cc1ccc(S(=O)(=O)NCC(=O)OCC(=O)c2cc(C)n(-c3ccccc3)c2C)cc1`, the AC50 under setting [2] is 8.91 µM [falling, partial curve, poor fit].

As to `CC1(C)C2CC=C(/C=N/NC(=O)c3ccc(Cl)cc3)C1C2` (centres undefined), the AC50 by setting is: under setting [1], 10 µM [rising, partial curve]; under setting [2], 15.8 µM [rising, partial curve].

In the case of `COCCn1c(C)cc(C(=O)CSc2nc3ccccc3c(=O)n2Cc2ccco2)c1C`, the AC50 under setting [1] is 0.891 µM [rising, full curve, poor fit] and the AC50 under setting [2] was 0.0794 µM [rising, full curve, poor fit].

Regarding `CCOC(=O)c1csc(Nc2nc3ccc(F)cc3s2)n1`, under setting [2], the AC50 is 11.2 µM [rising, partial curve].

With `CCOc1ccccc1NC(=O)C1CCCN(S(=O)(=O)c2cccc3cccnc23)C1` (centres undefined), the AC50 under setting [2] was 12.6 µM [rising, partial curve].

With `COc1cc(/C=C(\C#N)C(=O)NC2CCCCC2C)ccc1OS(=O)(=O)c1ccc(C)cc1` (centres undefined), the AC50 was 35.5 µM [falling, single point] under setting [1] and 35.5 µM [falling, single point] under setting [2].

Turning to `CCCCCC(=O)N/N=C/c1ccc(N(C)C)cc1`, the AC50 under setting [1] was 14.1 µM [falling, partial curve, poor fit].

In the case of `COC(=O)c1ccc(S(=O)(=O)c2ccc(C(=O)OC)s2)s1`, the AC50 under setting [2] was 0.891 µM [falling, full curve, poor fit].

For the molecule `CCc1cc(Br)ccc1N1C(=O)C2CC=CCC2C1=O` (centres undefined), the AC50 under setting [2] was 15.8 µM [rising, single point].

Turning to `COc1ccccc1N(CC(=O)NCCSc1ccc(Cl)cc1)S(C)(=O)=O`, the AC50 under setting [2] is 14.1 µM [falling, single point].

In the case of `COc1ccc(-c2cn3nc(SCC(=O)Nc4ccccc4F)ccc3n2)cc1`, the AC50 under setting [1] is 0.891 µM [rising, partial curve] and the AC50 under setting [2] is 7.94 µM [rising, partial curve, poor fit].

For the molecule `N#CCSc1nnc(-c2sc3ccccc3c2Cl)o1`, the AC50 under setting [2] is 17.8 µM [rising, partial curve].

As to `Cc1ccc2nc(NC(=O)c3ccc(Cn4cc(Cl)cn4)o3)sc2c1`, under setting [2], the AC50 is 35.5 µM [rising, single point].

`CCOC(=O)c1ccc(NC(=O)Cc2coc3cc4c(cc23)CCC4)cc1`: under setting [2], the AC50 was 31.6 µM [rising, single point].

As to `O=c1ccc2cc(O)c(O)cc2o1`, the AC50 reads like this: under setting [1], 10 µM [falling, partial curve, poor fit]; under setting [2], 11.2 µM [falling, partial curve].

Take `C=C1C(=O)[C@@]23[C@H](O)C[C@@H]4C(C)(C)CC[C@H](O)[C@]4(C)[C@@H]2C[C@H](O)[C@@H]1[C@H]3O`: under setting [2], the AC50 is 10 µM [rising, partial curve].

For `O=[N+]([O-])c1ccc(N/N=C/c2cn(-c3ccccc3)nc2-c2ccccc2)cc1`, the AC50 under setting [2] is 15.8 µM [falling, single point].

As for `CCc1ccc(N2C(=O)CN(Cc3ccc(OC)c(OC)c3)C2=S)cc1`, the AC50 under setting [2] was 11.2 µM [rising, partial curve, poor fit].

Take `CCN(CC)c1ccc2cc(-c3nc(-c4ccccc4)no3)c(=O)oc2c1`: the AC50 under setting [1] was 5.62 µM [rising, single point].
